Results reported in PubChem BioAssay AID504467 (National Center for Advancing Translational Sciences (NCATS), 2011).
Among all 330,000 compounds or so, about 7,700 (2.3%) were called active. Inconclusive results, whose numbers are uncertain, are shown with a selection of clear calls. Calls follow the shape of the dose curve; as a rule, active = well fitted inhibition curve with a large enough effect; inconclusive = small, poorly fitted or top-dose-only effect, or effect the other way; inactive = flat fitted curve, though single readings scatter. Potencies beside an inconclusive call are fits to weak or partial responses and may not hold up.

Test: qHTS screen for small molecules that inhibit ELG1-dependent DNA repair in human embryonic kidney (HEK293T) cells expressing luciferase-tagged ELG1; also: nearly all actives have a fitted effect of over 55% in size
Details: HEK293T ELG1-luciferase reporter, luminescence, 16 h, DNA damage induced by 5-fluorouridine; activity change, negative = inhibition: at 46.1 µM (top of the series)
Procedure, shortened: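 DMSO vehicle served as the neutral condition. Each well held 2,000 cells given 5-fluorouridine plus compound; after 16 hr at 37 °C/5% CO2, ONE-Glo was added and luciferase measured 30 min later.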
% is scaled to controls: 0 for no effect and ±100 for the full control effect; potency is read from the fitted curve at half-maximal effect.

Compound | Potency | activity change, negative = inhibition
Cc1cc(C)cc(OCC(=O)N/N=C/c2ccc([N+](=O)[O-])o2)c1 | inconclusive: 18.3 µM [inhibitor, single point] | 
O=C(CSc1nnnn1-c1ccc(F)cc1)NNC(=O)c1ccco1 |  | inactive: -5.59%
N#C/C(=C/c1cn(CC(=O)O)c2ccccc12)C(=O)NCc1ccccc1 |  | inactive: 3.37%
Cc1cc(C)n2ncc(C(=O)Nc3ccc(Cl)c(Cl)c3)c2n1 | inconclusive: 20.6 µM [activator, partial curve, poor fit] | 
Cc1cc(C(=O)COc2ccc(Br)cc2F)c(C)n1C1CC1 | inconclusive: 18.3 µM [activator, partial curve] | 
CCOC(=O)C1CCCN(S(=O)(=O)CCNC(=O)c2cccc(OC)c2)C1 (stereo unspecified) | inconclusive: 0.651 µM [activator, partial curve] | 
CCOc1ccc(-c2ncncc2-c2ccccc2OC)c(O)c1 | inconclusive: 29.1 µM [inhibitor, single point] | 
COc1cc(C(=O)NC2CCN(Cc3nnnn3Cc3ccc(F)cc3)CC2)cc(OC)c1OC | inconclusive: 20.6 µM [activator, single point] | 
COc1ccc(-c2cc(=O)c3c(OC)c(OC)c(OC)c(OC)c3o2)cc1OC | inconclusive: 25.9 µM [inhibitor, partial curve] | 
N#Cc1ccc(NC(=O)Nc2ccc(Oc3ccc(NC(=O)Nc4ccc(C#N)cc4)cc3)cc2)cc1 | inconclusive: 14.6 µM [inhibitor, partial curve] | 
O=C(Nc1ccc(Cl)cc1C(=O)NCCN1CCOCC1)c1ccco1 |  | inactive: 1.69%
Cc1ccc(OCc2nnc(SCC(=O)CC(=O)Nc3ccccc3)o2)cc1 |  | inactive: 0.122%
O=C(CN1C(=O)NC(Cc2ccccc2)C1=O)Nc1ccccc1OC(F)F (stereo unspecified) |  | inactive: 8.32%
O=C(CCNS(=O)(=O)c1ccc(Br)cc1)Nc1cccc(F)c1 |  | inactive: -1.13%
O=C(N/N=C/c1cccc([N+](=O)[O-])c1)c1cc2c(ccc3ccccc32)o1 | inconclusive: 29.1 µM [activator, partial curve, poor fit] | 
CNC(=S)N/N=C/c1c(C(=O)OC)cnn1-c1ccc(F)cc1F | inconclusive: 29.1 µM [inhibitor, single point] | 
COc1cc(CO)c(Br)cc1OCC(=O)Nc1ccccc1C |  | inactive: 2.01%
Cc1ccc(NC(=O)Nc2ncccc2C)cc1 | inconclusive: 13 µM [activator, partial curve] | 
CC(C)CCNC(=O)c1cc2c(=O)n3ccccc3nc2s1 | inconclusive: 9.2 µM [activator, partial curve] | 
Cc1cc(C)c2c(=O)[nH]c(SCC(=O)NCc3ccccc3)nc2n1 | inconclusive: 29.1 µM [activator, single point] | 
Cc1nnc2sc(-c3csc4c3CCCC4)nn12 | inconclusive: 23.1 µM [activator, single point] | 
CC12CCC(c3c(C(=O)Nc4nccs4)nn(-c4ccccc4)c31)C2(C)C (stereo unspecified) | inconclusive: 0.112 µM [inhibitor, full curve, poor fit] | 
Cc1ccc2[nH]c3c(NCCCN4CCCC4=O)ncnc3c2c1 | inconclusive: 20.6 µM [activator, partial curve, poor fit] | 
N#C/C(=C(/O)c1cccc(F)c1)c1nc2ccccc2s1 | inconclusive: 29.1 µM [activator, single point] | 

In the list so far, these have a thiophene ring, fused or not.
Compound | Potency | activity change, negative = inhibition
CC(C)CCNC(=O)c1cc2c(=O)n3ccccc3nc2s1 | inconclusive: 9.2 µM [activator, partial curve] | 
Cc1nnc2sc(-c3csc4c3CCCC4)nn12 | inconclusive: 23.1 µM [activator, single point] | 

Following part.

Compound | Potency | activity change, negative = inhibition
O=C(OCC(=O)N1CCN(c2ccccc2)CC1)c1nc(Cl)ccc1Cl |  | inactive: 13.4%
O=C(Cn1nc(C(=O)O)c2ccccc2c1=O)Nc1ccc2c(c1)C(=O)c1ccccc1C2=O | inconclusive: 20.6 µM [activator, partial curve] | 
COc1ccccc1NC(=O)CSc1ccc2nnc(-c3ccc(C)cc3)n2n1 | inconclusive: 23.1 µM [inhibitor, partial curve] | 
CCOC(=O)C1=C(COc2ccccc2)NC(=O)NC1c1ccc(Br)cc1 (stereo unspecified) |  | inactive: -8.26%
CN(Cc1ccccc1)C(=O)c1ccc(NC(=O)Cc2cccc(NC(=O)C3CCCN(C(=O)C4CCCC4)C3)c2)cc1 (stereo unspecified) | inconclusive: 25.9 µM [inhibitor, partial curve, poor fit] | 
COC(=O)c1ccc2c(=O)n(Cc3ccc(C(=O)NC4CCCC4)cc3)c(=S)[nH]c2c1 | inconclusive: 18.4 µM [activator, single point] | 
CCCN1C(=O)C(O)(C2CC(=O)CC(C)(C)O2)c2ccccc21 (stereo unspecified) |  | inactive: 13.5%
CCc1noc(C)c1C(=O)NNC(=O)c1ccccc1Cl |  | inactive: 0.556%
O=C(Nc1ccc2c(c1)OCO2)C1COc2ccccc2O1 (stereo unspecified) | inconclusive: 14.6 µM [activator, partial curve] | 
CCCc1cc(Nc2ccccc2C)n2ncnc2n1 |  | inactive: -2.08%
CCOC(=O)C1=C(C)NC(=O)NC1c1cn(-c2ccccc2)nc1-c1cccs1 (stereo unspecified) | inconclusive: 29.1 µM [inhibitor, single point] | 
COc1ccccc1N1CCN(C(=O)c2c(C)cc(=O)oc2C)CC1 |  | inactive: 13.5%
CC(Sc1cnccn1)C(=O)O (stereo unspecified) | inconclusive: 20.6 µM [activator, partial curve, poor fit] | 
Cc1cc(C)nc(Nc2ncc(O)n2-c2ccc(C)c(Cl)c2)n1 | inconclusive: 29.1 µM [inhibitor, partial curve, poor fit] | 
COc1ccccc1-c1nn2c(=O)cc(C)nc2s1 | inconclusive: 14.6 µM [activator, partial curve] | 
COc1ccc(C2C3=C(N=C4SCC(=O)N42)c2ccccc2CC3)cc1 (stereo unspecified) |  | inactive: 0%
O=C(CN1CCN(C2CCCCC2)CC1)Nc1cccc2ccccc12 |  | inactive: -6.45%
COc1cccc(-c2nnn(CC(=O)N3CCC(C)CC3)n2)c1 | inconclusive: 29.1 µM [activator, single point] | 
O=[N+]([O-])c1ccc(COc2ccc(Br)cc2CN2CCOCC2)cc1 | inconclusive: 14.6 µM [inhibitor, partial curve] | 
O=[N+]([O-])c1ccc(Sc2ncccn2)c([N+](=O)[O-])c1 | inconclusive: 8.2 µM [activator, partial curve] | 
O=C(CCNC(=O)C1CCN(S(=O)(=O)c2ccc(F)cc2)CC1)NC1CC1 |  | inactive: -0.0369%
CCOC(=O)COn1c(=O)c(-c2ccc(Br)cc2)[n+]([O-])c2ccccc21 | inconclusive: 5.8 µM [activator, partial curve] | 
CN1N=C(C(=O)N2CCc3c([nH]c4ccccc34)C2c2c(F)cccc2Cl)CCC1=O (stereo unspecified) | inconclusive: 29.1 µM [activator, single point] | 
Cc1ccc(-c2cc(C(=O)N3CCCC3)no2)cc1 | inconclusive: 1.03 µM [activator, partial curve] | 

Compound | Potency | activity change, negative = inhibition
Cc1cc(S(=O)(=O)N2CCCOC2CNC(=O)C(=O)NCc2ccco2)ccc1F (stereo unspecified) |  | inactive: -26.5%
O=C(CC1SCCNC1=O)Nc1ccc(Cl)cc1 (stereo unspecified) | inconclusive: 18.3 µM [activator, partial curve] | 
COc1ccc([C@H]2CC(=O)C=C(c3cccc(C#N)c3)C2)cc1 | inconclusive: 0.326 µM [activator, single point] | 
O=C(NCc1ccccc1)c1ccc2nc(N3CCOCC3)sc2c1 |  | inactive: 6.5%
C1CCc2nc3c(nc2C1)CCCC3 |  | inactive: 4.04%
COc1ccc(CN2C(=O)c3cccc4cccc2c34)cc1F |  | inactive: 0.159%
c1ccc2c(c1)NCC1CCCN21 (stereo unspecified) | inconclusive: 1.46 µM [inhibitor, full curve] | 
c1cncc(-c2nnc(C3CCCCC3)o2)c1 | inconclusive: 20.6 µM [activator, partial curve, poor fit] | 
Cn1c(CO)cnc1S(=O)(=O)Cc1c(Cl)cccc1Cl |  | inactive: 1.07%
COc1ccc(N(CC(=O)Nc2ccc3c(c2)OCCO3)S(=O)(=O)c2cccc(C)c2)cc1 |  | inactive: -21.9%
Cc1ccc(S(=O)(=O)N2CCOCC2)cc1C(=O)Nc1ccc2c(c1)CCC2 | inconclusive: 7.31 µM [inhibitor, partial curve] | 
Cc1cccc(-c2noc(-c3ccccc3C(=O)NCC3CCCO3)n2)c1 (stereo unspecified) | inconclusive: 25.9 µM [inhibitor, single point] | 
CC(=O)c1cccc(Nc2nc(-c3ccccc3)cs2)c1 | inconclusive: 2.31 µM [activator, partial curve] | 
CC(C)CC(=O)NC(=S)Nc1ccc(NC(=O)c2ccco2)cc1 |  | inactive: -24.2%
O=C(NCCC1=CCCCC1)C1CCCN(S(=O)(=O)c2ccc(F)cc2)C1 (stereo unspecified) | inconclusive: 29.1 µM [inhibitor, single point] | 
Cc1ccc(CCNC(=O)C23CN(Cc4ccccc4)CC2C(c2cccc([N+](=O)[O-])c2)=NO3)cc1 (stereo unspecified) | inconclusive: 11.6 µM [inhibitor, partial curve, poor fit] | 
CC(C)N(Cc1nc(-c2ccccc2)no1)C(=O)c1ccc(Br)o1 | inconclusive: 18.4 µM [inhibitor, single point] | 
COc1ccccc1NC(=O)CCN1C(=O)/C(=C/c2cc(OC)c(OC)c(OC)c2)SC1=S | inconclusive: 35.5 µM [inhibitor, partial curve, poor fit] | 
CCN(CC)C(=O)c1cccc(NC(=O)CC23CC4CC(CC(C4)C2)C3)c1 |  | inactive: -11.5%
NS(=O)(=O)c1ccc(CNC(=O)c2scc3c2CCCC3)cc1 | inconclusive: 16.4 µM [inhibitor, single point] | 
Nc1c(C(=O)N/N=C/c2cccnc2)oc2nc(-c3ccccc3)cc(-c3ccco3)c12 | active: 7.3 µM | 
O=C(Nc1ccc2c(c1)OCO2)c1ccccc1SCC(=O)N1CCCC1 |  | inactive: 4.62%
CC(C)(C)c1ccc(C(=O)NNC(=O)Cc2ccccc2)cc1 | inconclusive: 18.4 µM [activator, single point] | 
